Test results: paper PMC6712396
These are yes or no findings as the source states them, for the method shown. In cells and extracts the contact can be indirect. These calls come from enrichment with a bait or labelling near it, and not all partners need be listed. For part of these data: No binding means not detected with the bait. Sequences can lack the tags named with a protein.

Key:
Experiment in all cases: affinity purification with mass spectrometry; 293T cells transfected 48 h with HA-tagged IFI44, IFI6 or IFI27; lysed in Co-IP buffer (100 mM NaCl, 0.5 mM EDTA, 20 mM Tris-HCl pH 7.5, 1% Triton X-100, 5% glycerol); complexes purified on anti-HA affinity columns and eluted; SDS-PAGE, in-gel trypsin, LC-MS/MS
[1] = target: T1, interferon (IFN)-induced protein 44 (IFI44) fused to a hemagglutinin (HA) epitope tag (human) (UniProt Q8TCB0)
T1 sequence: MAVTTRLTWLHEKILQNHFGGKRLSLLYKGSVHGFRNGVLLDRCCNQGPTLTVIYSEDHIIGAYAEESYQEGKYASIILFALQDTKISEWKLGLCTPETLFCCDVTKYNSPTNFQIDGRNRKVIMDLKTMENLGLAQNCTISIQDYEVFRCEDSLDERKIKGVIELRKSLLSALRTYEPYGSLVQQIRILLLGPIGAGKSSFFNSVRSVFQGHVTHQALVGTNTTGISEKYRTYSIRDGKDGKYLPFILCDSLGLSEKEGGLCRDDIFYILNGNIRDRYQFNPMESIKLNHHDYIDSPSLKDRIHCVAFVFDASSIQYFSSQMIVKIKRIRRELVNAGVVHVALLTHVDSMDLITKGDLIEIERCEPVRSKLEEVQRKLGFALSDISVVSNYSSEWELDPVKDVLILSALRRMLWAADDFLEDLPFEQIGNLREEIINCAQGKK

[2] = target: T2, IFI6 fused to an HA tag (human) (UniProt P09912)
T2 sequence: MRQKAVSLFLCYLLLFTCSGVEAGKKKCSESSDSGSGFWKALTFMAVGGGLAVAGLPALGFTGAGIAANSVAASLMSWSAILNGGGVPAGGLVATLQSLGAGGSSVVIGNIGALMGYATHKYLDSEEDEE

[3] = target: T3, IFI27 fused to an HA tag (human) (UniProt P40305)
T3 sequence: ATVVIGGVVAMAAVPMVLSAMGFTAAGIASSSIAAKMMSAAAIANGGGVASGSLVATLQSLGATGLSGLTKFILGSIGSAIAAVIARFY

B1: endogenous FK506-binding protein 5 (FKBP5) (protein, UniProt Q13451 1-457)
chain: MTTDEGAKNNEESPTATVAEQGEDITSKKDRGVLKIVKRVGNGEETPMIGDKVYVHYKGKLSNGKKFDSSHDRNEPFVFSLGKGQVIKAWDIGVATMKKGEICHLLCKPEYAYGSAGSLPKIPSNATLFFEIELLDFKGEDLFEDGGIIRRTKRKGEGYSNPNEGATVEIHLEGRCGGRMFDCRDVAFTVGEGEDHDIPIGIDKALEKMQREEQCILYLGPRYGFGEAGKPKFGIEPNAELIYEVTLKSFEKAKESWEMDTKEKLEQAAIVKEKGTVYFKGGKYMQAVIQYGKIVSWLEMEYGLSEKESKASESFLLAAFLNLAMCYLKLREYTKAVECCDKALGLDSANEKGLYRRGEAQLLMNEFESAKGDFEKVLEVNPQNKAARLQISMCQKKAKEHNERDRRIYANMFKKFAEQDAKEEANKAMGKKTSEGVTNEKGTDSQAMEEEKPEGHV
For B1, the binding [1] was “binds”, the binding [2] was “no binding” and the binding [3] was “no binding”.
